Experiment [1] has as its target focal adhesion kinase (rat (endogenous in rat primary β-cells)) (UniProt O35346). Briefly: co-IP; rat primary β-cells after 4 h in 2.8 mM glucose then 20 min in 16.7 mM glucose, or 4 h in 2.8 mM glucose with AG1024; lysate (30-50 μg protein) with anti-FAK antibody 1 h at 4 °C, protein A/G-agarose overnight at 4 °C; Western blot for paxillin.
Experiment [2] has the same target. Nature of the experiment: co-IP; rat primary β-cells kept 4 h in 2.8 mM glucose (low glucose, no inhibitor); lysate (30-50 μg protein) with anti-FAK antibody 1 h at 4 °C, protein A/G-agarose overnight at 4 °C; Western blot for paxillin.

Protein sequences, listed by entry. Tags and fused reporters are not part of them.
UniProt O35346: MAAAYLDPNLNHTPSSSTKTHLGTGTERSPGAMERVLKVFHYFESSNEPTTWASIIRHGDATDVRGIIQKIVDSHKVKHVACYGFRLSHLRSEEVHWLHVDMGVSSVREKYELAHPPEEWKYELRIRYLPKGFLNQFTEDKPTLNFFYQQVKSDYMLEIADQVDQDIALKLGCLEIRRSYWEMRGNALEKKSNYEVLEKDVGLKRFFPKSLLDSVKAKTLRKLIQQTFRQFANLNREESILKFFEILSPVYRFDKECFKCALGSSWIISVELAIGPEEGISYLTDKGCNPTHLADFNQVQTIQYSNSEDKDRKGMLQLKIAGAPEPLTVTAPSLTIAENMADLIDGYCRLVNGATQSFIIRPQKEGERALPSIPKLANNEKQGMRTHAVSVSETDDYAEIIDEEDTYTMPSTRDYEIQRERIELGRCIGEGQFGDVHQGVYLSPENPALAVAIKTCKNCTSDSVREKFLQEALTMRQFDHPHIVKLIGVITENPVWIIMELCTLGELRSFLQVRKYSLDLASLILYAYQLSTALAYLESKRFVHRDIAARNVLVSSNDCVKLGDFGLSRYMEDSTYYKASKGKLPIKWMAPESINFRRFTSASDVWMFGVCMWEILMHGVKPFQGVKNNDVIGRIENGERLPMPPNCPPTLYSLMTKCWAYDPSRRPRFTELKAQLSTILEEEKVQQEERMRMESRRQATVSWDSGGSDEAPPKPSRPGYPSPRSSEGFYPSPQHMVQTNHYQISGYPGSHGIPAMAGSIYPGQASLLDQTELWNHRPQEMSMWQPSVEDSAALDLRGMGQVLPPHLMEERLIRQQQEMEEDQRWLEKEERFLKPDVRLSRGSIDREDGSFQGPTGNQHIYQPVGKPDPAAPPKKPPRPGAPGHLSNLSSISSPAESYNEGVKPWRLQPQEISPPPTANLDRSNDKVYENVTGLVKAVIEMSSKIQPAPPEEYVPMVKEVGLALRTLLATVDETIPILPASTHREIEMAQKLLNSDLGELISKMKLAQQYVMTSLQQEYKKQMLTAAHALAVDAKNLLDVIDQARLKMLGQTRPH
UniProt Q66H76: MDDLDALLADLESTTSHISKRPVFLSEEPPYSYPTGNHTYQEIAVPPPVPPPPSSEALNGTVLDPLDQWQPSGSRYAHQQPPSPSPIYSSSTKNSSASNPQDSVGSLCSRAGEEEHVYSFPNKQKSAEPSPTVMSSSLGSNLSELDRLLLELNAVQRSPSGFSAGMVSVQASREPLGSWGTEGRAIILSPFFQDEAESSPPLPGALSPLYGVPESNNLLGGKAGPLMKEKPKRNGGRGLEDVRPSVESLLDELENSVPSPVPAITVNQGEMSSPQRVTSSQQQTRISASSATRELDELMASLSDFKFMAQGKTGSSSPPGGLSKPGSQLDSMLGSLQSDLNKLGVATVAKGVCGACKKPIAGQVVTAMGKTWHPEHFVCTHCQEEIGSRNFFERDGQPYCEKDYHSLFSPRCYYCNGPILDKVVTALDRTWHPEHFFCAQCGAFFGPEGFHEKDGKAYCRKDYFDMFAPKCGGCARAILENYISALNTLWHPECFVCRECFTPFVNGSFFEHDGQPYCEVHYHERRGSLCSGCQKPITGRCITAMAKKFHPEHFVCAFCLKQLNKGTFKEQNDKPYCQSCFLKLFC

Results are given in words; binding and its absence hold for the method and conditions named. In cells and extracts the contact can be indirect. Some results given as binding are weak or reduced against the parent protein; the word gives no strength.

Consider paxillin (from UniProt Q66H76 1-586), for which the binding entry in experiment [1] is “binds”; in experiment [2], “binds weakly”.

(Values after PMC7864053.)
